The test has as its target RCC2-YFP (UniProt Q9P258). The test can be described thus: co-IP; pre-cleared lysate of HeLa cells expressing YFP or RCC2-YFP; rabbit anti-GFP antibody overnight at 4 °C, protein A-Sepharose 1 h, three washes in lysis buffer; Western blot with anti-GFP, anti-Rac1, anti-cdc42 or anti-Rho A. (In general: A western blot detects proteins with antibodies after separation by electrophoresis.)

By UniProt entry, the sequences of proteins in these tests, tags left out.
UniProt P61586: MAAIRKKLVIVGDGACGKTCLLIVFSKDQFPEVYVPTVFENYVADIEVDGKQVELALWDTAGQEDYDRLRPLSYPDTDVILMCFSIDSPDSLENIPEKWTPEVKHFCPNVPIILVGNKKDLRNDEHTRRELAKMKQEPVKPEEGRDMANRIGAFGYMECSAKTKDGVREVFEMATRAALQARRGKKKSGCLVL

These are yes or no findings as the source states them, for the method shown. In cells and extracts the contact can be indirect.

With Rho A (from UniProt P61586 1-193), the binding result is “no binding”.

The record behind these values is publication PMC5763756.
